Measurements reported in PubChem BioAssay AID1224830 (NIAID, 2016)
Here is an unselected part of about 18,000 reagents tested. Of all reagents, about 2,900 (16%) are marked active. 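Calls are made per well; low scores hint the gene aids the LPS response, high scores that it dampens it.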 Entries without a mark were called inactive. Reagents against one gene are numbered here. Repeated entries: four replicate wells of each siRNA pool.

- Aim: 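Regulators of TLR4 signalling towards TNF-alpha in macrophage-like cells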 (primary screen)
- System: human THP-1 monocytic leukaemia cells, TNF dual-luciferase reporter clone, PMA-differentiated to macrophage-like cells
- Knock-down reagent: siRNA pool against human genes, 50 nM
- Time to read-out: LPS for 4 h, given about 3 days after siRNA transfection
- Challenge: bacterial LPS (TLR4 ligand), 10 ng/ml
- Measurement: 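TNF firefly reporter luminescence divided by renilla, normalised to the plate median, then turned into a robust z-score for each replicate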
- Scale: TNF reporter robust z-score: higher = stronger TNF reporter response to LPS
- Hit rule: 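Each well counts as active if its z-score is over 2.8 or under -1.5; controls are left without a call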

TNF reporter robust z-score, by gene and reagent
RCC1 (GeneID 1104): #1 2.24; #1 1.58; #1 2.56; #1 -0.73; #2 -0.1; #2 -0.75; #2 -0.79; #2 0.32
AGBL4 (GeneID 84871): #1 -0.34; #1 0.12; #1 -0.76; #1 -1.31
MND1 (GeneID 84057): #1 1.01; #1 -0.48; #1 -0.31; #1 -0.65
RXFP2 (GeneID 122042): #1 -0.69; #1 -0.37; #1 -0.75; #1 -0.47
L3MBTL4 (GeneID 91133): #1 0.04; #1 0.57; #1 0.11; #1 0.34
TMIGD1 (GeneID 388364): #1 -0.55; #1 -0.08; #1 -0.42; #1 -0.7
SSR1 (GeneID 6745): #1 -0.85; #1 0.78; #1 0.76; #1 -0.36
MED22 (GeneID 6837): #1 1.12; #1 0.13; #1 1.37; #1 0.26
MRPS22 (GeneID 56945): #1 -0.23; #1 1.54; #1 -0.34; #1 1.28
CHRAC1 (GeneID 54108): #1 -0.82; #1 1.25; #1 -0.93; #1 0.05
MRPL40 (GeneID 64976): #1 -1.53 (active); #1 -0.87; #1 -1; #1 -0.76
NPAS1 (GeneID 4861): #1 0.45; #1 -0.21; #1 0.49; #1 2.21
ATP4A (GeneID 495): #1 -1.44; #1 0.07; #1 -0.34; #1 -0.64
SLAMF9 (GeneID 89886): #1 -0.18; #1 -0.04; #1 0.37; #1 0.33
STX19 (GeneID 415117): #1 -1.24; #1 -0.38; #1 -0.83; #1 -0.22
RNF183 (GeneID 138065): #1 0.2; #1 1.69; #1 1.22; #1 1.23
RASAL1 (GeneID 8437): #1 -0.61; #1 -0.45; #1 -1.03; #1 -1.56 (active)
BCL2L14 (GeneID 79370): #1 0; #1 -0.49; #1 -0.17; #1 -0.23
LSM12 (GeneID 124801): #1 1.94; #1 2.3; #1 2.06; #1 1.58
HMGCS2 (GeneID 3158): #1 -0.81; #1 -0.98; #1 -0.97; #1 -0.58
HAUS7 (GeneID 55559): #1 -0.23; #1 0.06; #1 0.4; #1 -0.13
MAPK9 (GeneID 5601): #1 2.15; #1 1.32; #1 1.81; #1 1.05
SMCP (GeneID 4184): #1 -0.06; #1 0.26; #1 -0.08; #1 0.17
PNPLA1 (GeneID 285848): #1 -0.38; #1 -0.2; #1 -0.02; #1 1.26
PRAME (GeneID 23532): #1 1.14; #1 1.42; #1 0.59; #1 3.3 (active)
OR13A1 (GeneID 79290): #1 -0.47; #1 -0.51; #1 -0.5; #1 0.08
SPATA31E1 (GeneID 286234): #1 -1.19; #1 -0.88; #1 -0.5; #1 -0.69

Laid out differently: 8 of the entries above.
MAPK9 (GeneID 5601) | TNF reporter robust z-score: 1.81
MAPK9 (GeneID 5601) | TNF reporter robust z-score: 1.05
SMCP (GeneID 4184) | TNF reporter robust z-score: -0.06
SMCP (GeneID 4184) | TNF reporter robust z-score: 0.26
SMCP (GeneID 4184) | TNF reporter robust z-score: -0.08
SMCP (GeneID 4184) | TNF reporter robust z-score: 0.17
PNPLA1 (GeneID 285848) | TNF reporter robust z-score: -0.38
PNPLA1 (GeneID 285848) | TNF reporter robust z-score: -0.2
